# Assay results published in patent publication US20210179729A1 (University of California, published 2021).
# Changes are numbered by the printed parent chain. Results are given in words; binding and its absence hold for the method and conditions named. Some results given as binding are weak or reduced against the parent protein; the word gives no strength.
# B1: CDCP1-004 Fab (Fab, V domains shown)
# VH: EVQLVESGGGLVQPGGSLRLSCAASGFNISYYYMHWVRQAPGKGLEWVASIYSSYGYTSYADSVKGRFTISADTSKNTAYLQMNSLRAEDTAVYYCARVYYGFDYWGQGTLVTVSS
# VL: DIQMTQSPSSLSASVGDRVTITCRASQSVSSAVAWYQQKPGKAPKLLIYSASSLYSGVPSRFSGSRSGTDFTLTISSLQPEDFATYYCQQSYYVYPITFGQGTKVEIK
# notes: Tested as Fab
# B2: CDCP1-003 Fab (Fab, V domains shown)
# VH: B1 VH with Y33S, Y52S, S53P, S54Y, Y55S, V99G, G102A, F103L
# VL: B1 VL with S91Y, V94F, I97F
# notes: Tested as Fab
# B3: CDCP1-005 Fab (Fab, V domains shown)
# VH: B1 VH with M34I, S53P, S54Y, Y57S, S59Y, V99A
# VL: B1 VL with Y93W, V94S, Y95F
# notes: Tested as Fab
# B4: CDCP1-007 Fab (Fab, V domains shown)
# VH: B1 VH with S30Y, Y31S, M34I, S53P, S54Y, V99A, F103M
# VL: B1 VL with Y93F, V94Y, Y95W
# notes: Tested as Fab
# B5: CDCP1-008 Fab (Fab, V domains shown)
# VH: B1 VH with Y31S, S53P, S54Y, Y55S, S59Y, V99A, G102A, F103M
# VL: B1 VL
# notes: Tested as Fab
# How the values were obtained:
# CDCP1 aas 30-367 (human) = CDCP1 aas 30-367 (human) (UniProt Q9H5V8); assay: ELISA, CDCP1 specificity on fragments
# CDCP1 aas 30-367 = target: T1, CDCP1 aas 30-367 (human, UniProt Q9H5V8 30-367); assay: ELISA, CDCP1 specificity on fragments
# T1 construct: range 30-367
# T1 sequence (looked up): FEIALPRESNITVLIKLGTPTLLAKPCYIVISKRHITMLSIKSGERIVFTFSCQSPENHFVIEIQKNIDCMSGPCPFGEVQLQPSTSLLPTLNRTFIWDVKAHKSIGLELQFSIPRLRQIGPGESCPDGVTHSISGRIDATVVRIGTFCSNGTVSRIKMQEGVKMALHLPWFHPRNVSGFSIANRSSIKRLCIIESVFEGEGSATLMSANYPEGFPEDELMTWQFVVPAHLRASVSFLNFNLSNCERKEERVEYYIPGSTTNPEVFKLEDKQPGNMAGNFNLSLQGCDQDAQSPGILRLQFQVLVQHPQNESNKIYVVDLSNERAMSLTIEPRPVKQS
binder,measurement,setting,value
B1,binding,CDCP1 aas 30-367 (human),binds
B2,binding,CDCP1 aas 30-367 (human),binds
B3,binding,CDCP1 aas 30-367,binds
B4,binding,CDCP1 aas 30-367 (human),binds
B5,binding,CDCP1 aas 30-367 (human),binds
